Results as given in the supplement of paper PMC7661543.
Differences between knockout arms are mostly noise.

Legend:
Experiment in all cases: relative cell number vs DMSO control (72 h) (% of DMSO); higher = less growth inhibition (more cells)
ZR-75-1 = system: ZR-75-1
Protocol: (§1)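 QMAP-Seq: a pool of 5 breast cancer cell lines (ZR-75-1, SKBR3, HCC-38, MDA-MB-231, BT-20), each carrying 12 doxycycline-inducible Cas9 sgRNA perturbations (11 knockouts plus non-targeting sgNT), was treated with compounds for 72 h at four 10-fold doses (10 nM-10 uM or 1 nM-1 uM range). Barcodes were amplified and sequenced, and cell number was interpolated from 293T spike-in standard curves. The result is expressed as % of the median of DMSO wells. Two biological replicates.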

MDA-MB-231 = system: MDA-MB-231
Protocol: as §1

SKBR3 = system: SKBR3
Protocol: as §1

CS(=O)(=O)c1cccc(CNc2nc(Nc3ccc4c(c3)CCC(=O)N4)ncc2C(F)(F)F)c1
relative cell number
Details | MDA-MB-231 | SKBR3 | ZR-75-1
sgRNA knockout: sgATF3, 10 nM | 128 | 97 | 94.4
sgRNA knockout: sgATF3, 100 nM | 136 | 125 | 121.7
sgRNA knockout: sgATF3, 1000 nM | 122 | 87.87 | 76.6
sgRNA knockout: sgATF3, 10000 nM | 45 | 44.8 | 54.4
sgRNA knockout: sgATF4, 10 nM | 143 | 77.4 | 129
sgRNA knockout: sgATF4, 100 nM | 157.8 | 105 | 180
sgRNA knockout: sgATF4, 1000 nM | 151 | 90.9 | 106
sgRNA knockout: sgATF4, 10000 nM | 45.8 | 35.3 | 33.7
sgRNA knockout: sgATF6, 10 nM | 102 | 81.7 | 105
sgRNA knockout: sgATF6, 100 nM | 126 | 104 | 137.4
sgRNA knockout: sgATF6, 1000 nM | 110 | 84.2 | 71.1
sgRNA knockout: sgATF6, 10000 nM | 45.6 | 42.9 | 42.1
sgRNA knockout: sgATG7, 10 nM | 115 | 93 | 87
sgRNA knockout: sgATG7, 100 nM | 129 | 135 | 115
sgRNA knockout: sgATG7, 1000 nM | 98.4 | 85.8 | 108
sgRNA knockout: sgATG7, 10000 nM | 37.3 | 45.8 | 35.8
sgRNA knockout: sgERN1, 10 nM | 97.8 | 111 | 85.9
sgRNA knockout: sgERN1, 100 nM | 118.2 | 109 | 102
sgRNA knockout: sgERN1, 1000 nM | 105 | 90.34 | 111
sgRNA knockout: sgERN1, 10000 nM | 34.9 | 40.3 | 51.8
sgRNA knockout: sgHSF1, 10 nM | 113 | 79 | –
sgRNA knockout: sgHSF1, 100 nM | 104 | 100 | –
sgRNA knockout: sgHSF1, 1000 nM | 117 | 80.2 | –
sgRNA knockout: sgHSF1, 10000 nM | 37.6 | 44.5 | –
sgRNA knockout: sgHSF2, 10 nM | 131 | 91.5 | 81
sgRNA knockout: sgHSF2, 100 nM | 141 | 101 | 123.8
sgRNA knockout: sgHSF2, 1000 nM | 128 | 82.1 | 80.6
sgRNA knockout: sgHSF2, 10000 nM | 40.2 | 42.1 | 37.1
sgRNA knockout: sgKEAP1, 10 nM | 104 | 99.8 | –
sgRNA knockout: sgKEAP1, 100 nM | 125 | 118 | –
sgRNA knockout: sgKEAP1, 1000 nM | 91 | 61.3 | –
sgRNA knockout: sgKEAP1, 10000 nM | 42.8 | 35.3 | –
sgRNA knockout: sgNFE2L2, 10 nM | 108 | 101 | 88.6
sgRNA knockout: sgNFE2L2, 100 nM | 120 | 120 | 137
sgRNA knockout: sgNFE2L2, 1000 nM | 129 | 91.3 | 89.7
sgRNA knockout: sgNFE2L2, 10000 nM | 47.5 | 42.9 | 39.2
sgRNA knockout: sgSLC35F2, 10 nM | 121 | 89.5 | 139
sgRNA knockout: sgSLC35F2, 100 nM | 126 | 98.54 | 172
sgRNA knockout: sgSLC35F2, 1000 nM | 106 | 87.2 | 136
sgRNA knockout: sgSLC35F2, 10000 nM | 37.8 | 38.6 | 48.1
sgRNA knockout: sgXBP1, 10 nM | 116 | 112 | 93.9
sgRNA knockout: sgXBP1, 100 nM | 98.1 | 145 | 108.3
sgRNA knockout: sgXBP1, 1000 nM | 106 | 92.9 | 105
sgRNA knockout: sgXBP1, 10000 nM | 44.3 | 45.8 | 42.6

CCOc1cc2ncc(C#N)c(Nc3ccc(OCc4ccccn4)c(Cl)c3)c2cc1NC(=O)/C=C/CN(C)C [Neratinib]
relative cell number
Details | MDA-MB-231 | SKBR3 | ZR-75-1
sgRNA knockout: sgATF3, 10 nM | 102 | 111 | 135
sgRNA knockout: sgATF3, 100 nM | 103 | 70.03 | 89.5
sgRNA knockout: sgATF3, 1000 nM | 110 | 27 | 85.4
sgRNA knockout: sgATF3, 10000 nM | 56.3 | 19.6 | 74.8
sgRNA knockout: sgATF4, 10 nM | 90.1 | 84.3 | 113
sgRNA knockout: sgATF4, 100 nM | 112 | 66.9 | 106.23
sgRNA knockout: sgATF4, 1000 nM | 137 | 23.6 | 79
sgRNA knockout: sgATF4, 10000 nM | 43.4 | 22.5 | 41
sgRNA knockout: sgATF6, 10 nM | 114 | 102 | 147
sgRNA knockout: sgATF6, 100 nM | 102 | 75.3 | 89.8
sgRNA knockout: sgATF6, 1000 nM | 56.9 | 29.2 | 88
sgRNA knockout: sgATF6, 10000 nM | 55.6 | 18 | 68.1
sgRNA knockout: sgATG7, 10 nM | 95.6 | 102 | 96.7
sgRNA knockout: sgATG7, 100 nM | 104 | 63.7 | 70.7
sgRNA knockout: sgATG7, 1000 nM | 106 | 23.4 | 56
sgRNA knockout: sgATG7, 10000 nM | 54.6 | 27.4 | 58.9
sgRNA knockout: sgERN1, 10 nM | 111 | 92.64 | 89.6
sgRNA knockout: sgERN1, 100 nM | 99.6 | 68.3 | 75.1
sgRNA knockout: sgERN1, 1000 nM | 100 | 23.1 | 92.3
sgRNA knockout: sgERN1, 10000 nM | 56.1 | 21.7 | 54.6
sgRNA knockout: sgHSF1, 10 nM | 99.2 | 82.9 | –
sgRNA knockout: sgHSF1, 100 nM | 115 | 61.4 | –
sgRNA knockout: sgHSF1, 1000 nM | 82 | 24.77 | –
sgRNA knockout: sgHSF1, 10000 nM | 39.8 | 20.6 | –
sgRNA knockout: sgHSF2, 10 nM | 94.2 | 97.1 | 110
sgRNA knockout: sgHSF2, 100 nM | 96.54 | 69.9 | 66.5
sgRNA knockout: sgHSF2, 1000 nM | 84 | 32 | 66.8
sgRNA knockout: sgHSF2, 10000 nM | 41 | 18 | 56.6
sgRNA knockout: sgKEAP1, 10 nM | 82.2 | 95.9 | –
sgRNA knockout: sgKEAP1, 100 nM | 120 | 58.6 | –
sgRNA knockout: sgKEAP1, 1000 nM | 86 | 24.9 | –
sgRNA knockout: sgKEAP1, 10000 nM | 45 | 20 | –
sgRNA knockout: sgNFE2L2, 10 nM | 106 | 85.2 | 75
sgRNA knockout: sgNFE2L2, 100 nM | 75 | 68.9 | 56.1
sgRNA knockout: sgNFE2L2, 1000 nM | 88 | 26.1 | 109
sgRNA knockout: sgNFE2L2, 10000 nM | 51.2 | 19.1 | 55.8
sgRNA knockout: sgSLC35F2, 10 nM | 73.5 | 82.5 | 90.1
sgRNA knockout: sgSLC35F2, 100 nM | 105 | 68 | 51
sgRNA knockout: sgSLC35F2, 1000 nM | 81.9 | 19.5 | 82.5
sgRNA knockout: sgSLC35F2, 10000 nM | 36.2 | 18.8 | 31.6
sgRNA knockout: sgXBP1, 10 nM | 85.5 | 89.773 | 82.4
sgRNA knockout: sgXBP1, 100 nM | 101 | 79.1 | 70.9
sgRNA knockout: sgXBP1, 1000 nM | 108 | 29.9 | 86
sgRNA knockout: sgXBP1, 10000 nM | 49 | 22.6 | 54.6
